Paper PMC5864894
Results are given in words; binding and its absence hold for the method and conditions named. Binding calls can cover weak binding; strength is not graded here.

T1: AscY (A. salmonicida) (A. salmonicida) (UniProt Q8GA92)
T1 sequence: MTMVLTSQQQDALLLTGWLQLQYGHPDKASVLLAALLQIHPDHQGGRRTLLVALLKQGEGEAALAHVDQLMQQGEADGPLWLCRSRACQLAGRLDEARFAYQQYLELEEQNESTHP

B1: AscX (A. salmonicida) (protein, UniProt Q8GA93 1-121)
chain: MSRITAAHIGIEQLSAISLDDQERSLPGRYALLPDGQSIEPHISRLYPERLADRVLLDFATPDRGFHDLLRPVDFNQAMQGLRSVLAEGQSPELRAAAALLEQMHADEQLMQMTLHLLHKV

What was measured:
PscY (P. aeruginosa) = PscY (P. aeruginosa) (UniProt O30535); test: two-hybrid
[1] = molecular target: T1, AscY (A. salmonicida) (A. salmonicida); test: two-hybrid

Row | Molecule | binding (PscY (P. aeruginosa)) | binding [1]
1 | PscX (from UniProt O30534) | binds | binds
2 | B1 | binds | –
